Results on one sequence are retold here after publication PMC11252414.

Amino acid sequences for entries named in this document (tags omitted). Residues count along the entry.
UniProt P24627, 20-708: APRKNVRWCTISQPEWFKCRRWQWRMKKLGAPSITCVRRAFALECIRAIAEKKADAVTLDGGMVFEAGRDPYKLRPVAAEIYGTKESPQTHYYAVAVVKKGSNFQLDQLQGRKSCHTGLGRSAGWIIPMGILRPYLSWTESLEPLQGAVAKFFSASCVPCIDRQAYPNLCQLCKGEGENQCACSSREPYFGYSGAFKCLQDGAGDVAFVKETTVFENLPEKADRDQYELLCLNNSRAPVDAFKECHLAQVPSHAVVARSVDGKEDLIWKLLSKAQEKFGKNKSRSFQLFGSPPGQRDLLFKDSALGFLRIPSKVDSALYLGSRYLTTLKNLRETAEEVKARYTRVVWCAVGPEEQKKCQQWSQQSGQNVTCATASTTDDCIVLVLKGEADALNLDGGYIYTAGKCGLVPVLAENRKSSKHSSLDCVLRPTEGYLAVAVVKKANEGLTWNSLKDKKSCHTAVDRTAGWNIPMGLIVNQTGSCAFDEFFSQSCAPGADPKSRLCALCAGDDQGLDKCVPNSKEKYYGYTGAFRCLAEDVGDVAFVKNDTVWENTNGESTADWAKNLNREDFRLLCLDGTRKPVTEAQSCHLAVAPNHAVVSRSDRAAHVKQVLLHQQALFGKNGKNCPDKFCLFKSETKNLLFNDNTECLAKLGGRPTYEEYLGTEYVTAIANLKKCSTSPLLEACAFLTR

The target in this data set is lactoferrin (LF) (bovine (milk)) (UniProt P24627). In words: Ag nanoparticle-enhanced SPR imaging. The note with it: cited selection value; 3'-amino, coupled via NHS/EDC to carboxylated porous Si; Selection buffer: PBS (137 mM NaCl, 10 mM Na2HPO4, 2.7 mM KCl, 2 mM KH2PO4) + 1 mM MgCl2, pH 7.4, room temperature; GI fluid at 37 C; commercial protein; single-stranded DNA.

pKd: −log10 of the molar value. The exact form of at least one protein or probe is not confirmed.

For the sequence “CAGGCAGGACACCGTAACCGGTGCATCTATGGCTACTAGCTCTTCCTGCCTATTTTTTTTTT [Lac 9-2 anti-LF aptamer with T10 spacer]”, the pKd was 8.95.
